According to the supplement of paper PMC9233669:
This sample is rich in variants without activity.

How the values were obtained:
biotinyl-Trp-oxazolone = assay: self-aminoacylation, catalytic enhancement (BWO) (fold over background); higher = more active; k-Seq, kA / k0A0; sequences stand for … in GGGAAUGGAUCCACAUCUACGAAUUC…UUCACUGCAGACUUGACGAAGCUG
Method in brief: (§1)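 Mutagenized RNA pools with a 21-nt variable region (0.43 μM) reacted with each biotinyl-aminoacyl-oxazolone at 2–1250 μM. Reactions ran in 50 μL HEPES/NaCl/KCl/MgCl2/CaCl2 buffer with 5% acetonitrile, pH 6.9–7.0, for 90 minutes at room temperature. Streptavidin-captured RNA was quantified by triplicate qPCR and Illumina sequencing, and per-sequence fraction reacted was fit to a pseudo-first-order model with 1000 bootstraps. Catalytic enhancement is median kA divided by the uncatalyzed rate, the low-activity peak of a bimodal Gaussian fit.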

biotinyl-Leu-oxazolone = assay: self-aminoacylation, catalytic enhancement (BLO) (fold over background); higher = more active; k-Seq, kA / k0A0; sequences stand for … in GGGAAUGGAUCCACAUCUACGAAUUC…UUCACUGCAGACUUGACGAAGCUG
Method in brief: as §1

biotinyl-Val-oxazolone = assay: self-aminoacylation, catalytic enhancement (BVO) (fold over background); higher = more active; k-Seq, kA / k0A0; sequences stand for … in GGGAAUGGAUCCACAUCUACGAAUUC…UUCACUGCAGACUUGACGAAGCUG
Method in brief: as §1

biotinyl-Ile-oxazolone = assay: self-aminoacylation, catalytic enhancement (BIO) (fold over background); higher = more active; k-Seq, kA / k0A0; sequences stand for … in GGGAAUGGAUCCACAUCUACGAAUUC…UUCACUGCAGACUUGACGAAGCUG
Method in brief: as §1

biotinyl-Met-oxazolone = assay: self-aminoacylation, catalytic enhancement (BMO) (fold over background); higher = more active; k-Seq, kA / k0A0; sequences stand for … in GGGAAUGGAUCCACAUCUACGAAUUC…UUCACUGCAGACUUGACGAAGCUG
Method in brief: as §1

biotinyl-Phe-oxazolone = assay: self-aminoacylation, catalytic enhancement (BFO) (fold over background); higher = more active; k-Seq, kA / k0A0; sequences stand for … in GGGAAUGGAUCCACAUCUACGAAUUC…UUCACUGCAGACUUGACGAAGCUG
Method in brief: as §1

| Sequence | self-aminoacylation (biotinyl-Trp-oxazolone) | self-aminoacylation (biotinyl-Leu-oxazolone) | self-aminoacylation (biotinyl-Val-oxazolone) | self-aminoacylation (biotinyl-Ile-oxazolone) | self-aminoacylation (biotinyl-Met-oxazolone) | self-aminoacylation (biotinyl-Phe-oxazolone) |
| --- | --- | --- | --- | --- | --- | --- |
| AAGAUUGCUAAUAGACGCAAG [Fam3.1 aminoacylation ribozyme variant] | 0.72 | 0.606 | 0.728 | 0.766 | 0.615 | 1.22 |
| AAGAUUGCUAAUAGUUGCAAG [Fam3.1 aminoacylation ribozyme variant] | 1.18 | 0.923 | 1.16 | 1.58 | 1.32 | 1.73 |
| AAGCUUGCUAAUAGUCGCUAG [Fam3.1 aminoacylation ribozyme variant] | 2 | 1.71 | 1.38 | 1.89 | 1.29 | 2.31 |
| AAGGUUGCAAAUAGUCGCAAG [Fam3.1 aminoacylation ribozyme variant] | 1.66 | 1.2 | 1.08 | 1.41 | 1.02 | 1.44 |
| AAGGUUGCUAAUACUCGCAAG [Fam3.1 aminoacylation ribozyme variant] | 1.09 | 1.19 | 0.974 | 1.3 | 0.921 | 1.62 |
| AAGGUUGCUAAUAGUAGCAAG [Fam3.1 aminoacylation ribozyme variant] | 1.3 | 1.08 | 0.93 | 1.31 | 1.4 | 1.57 |
| AAGGUUGCUAAUAGUCCCAAG [Fam3.1 aminoacylation ribozyme variant] | 1.4 | 0.775 | 1.44 | 1.15 | 0.856 | 2.86 |
| AAGUAUGCUAAUAGUCGCAUG [Fam3.1 aminoacylation ribozyme variant] | 1.84 | 1.55 | 1.09 | 1.34 | 1.45 | 1.66 |
| AAGUAUGCUAAUGGUCGCAAG [Fam3.1 aminoacylation ribozyme variant] | 0.826 | 0.846 | 0.958 | 0.913 | 0.914 | 1.01 |
| AAGUAUGCUUAUAGUCGCAAG [Fam3.1 aminoacylation ribozyme variant] | 1.48 | 1.54 | 1.51 | 1.6 | 1.19 | 1.63 |
| AAGUCUGCUAAUAGUAGCAAG [Fam3.1 aminoacylation ribozyme variant] | 1.67 | 1.44 | 1.08 | 0.968 | 1.24 | 1.42 |
| AAGUCUGCUAAUAGUCGCACG [Fam3.1 aminoacylation ribozyme variant] | 1.04 | 1.14 | 0.982 | 0.995 | 1.11 | 1.38 |
| AAGUCUGUUAAUAGUCGCAAG [Fam3.1 aminoacylation ribozyme variant] | 0.936 | 1.01 | 1.03 | 1.14 | 1.03 | 1.04 |
| AAGUGUGCUAAUAGUCCCAAG [Fam3.1 aminoacylation ribozyme variant] | 2.02 | 1.24 | 1.28 | 1.34 | 1.17 | 3.77 |
| AAGUGUGCUAAUAGUCGCAAU [Fam3.1 aminoacylation ribozyme variant] | 2.01 | 1.63 | 1.6 | 1.66 | 1.24 | 1.46 |
| AAGUUCGCUAAUAGUAGCAAG [Fam3.1 aminoacylation ribozyme variant] | 1.24 | 1.28 | 1.26 | 1.67 | 1.55 | 3.5 |
| AAGUUCGCUUAUAGUCGCAAG [Fam3.1 aminoacylation ribozyme variant] | 2.23 | 1.84 | 1.5 | 1.86 | 2.03 | 1.99 |
| AAGUUUCCUAAUAAUCGCAAG [Fam3.1 aminoacylation ribozyme variant] | 0.471 | 0.923 | 0.814 | 1.08 | 0.705 | 1.11 |
| AAGUUUCCUUAUAGUCGCAAG [Fam3.1 aminoacylation ribozyme variant] | 1.53 | 1.65 | 1.67 | 1.79 | 1.71 | 2.75 |
| AAGUUUGAAAAUAGUCGCAAG [Fam3.1 aminoacylation ribozyme variant] | 1.6 | 1.85 | 1.54 | 1.55 | 1.79 | 1.66 |
| AAGUUUGAUAAUAAUCGCAAG [Fam3.1 aminoacylation ribozyme variant] | 1.05 | 0.821 | 0.77 | 0.978 | 0.852 | 1.12 |
| AAGUUUGAUAAUAUUCGCAAG [Fam3.1 aminoacylation ribozyme variant] | 1.23 | 1.28 | 1.05 | 1.39 | 1.38 | 1.31 |

| Sequence | self-aminoacylation (biotinyl-Trp-oxazolone) | self-aminoacylation (biotinyl-Leu-oxazolone) | self-aminoacylation (biotinyl-Val-oxazolone) | self-aminoacylation (biotinyl-Ile-oxazolone) | self-aminoacylation (biotinyl-Met-oxazolone) | self-aminoacylation (biotinyl-Phe-oxazolone) |
| --- | --- | --- | --- | --- | --- | --- |
| AAGUUUGCCAAUAGCCGCAAG [Fam3.1 aminoacylation ribozyme variant] | 0.913 | 0.865 | 1.25 | 1.05 | 1.2 | 1.18 |
| AAGUUUGCCAAUAGUGGCAAG [Fam3.1 aminoacylation ribozyme variant] | 0.868 | 0.722 | 0.615 | 0.707 | 0.739 | 0.933 |
| AAGUUUGCGAAUAGACGCAAG [Fam3.1 aminoacylation ribozyme variant] | 0.874 | 0.597 | 0.559 | 0.528 | 0.658 | 1.08 |
| AAGUUUGCGCAUAGUCGCAAG [Fam3.1 aminoacylation ribozyme variant] | 1.35 | 0.712 | 1.06 | 0.99 | 0.774 | 2.97 |
| AAGUUUGCUAAAAGACGCAAG [Fam3.1 aminoacylation ribozyme variant] | 0.53 | 0.412 | 0.713 | 0.532 | 0.43 | 0.761 |
| AAGUUUGCUAACAGGCGCAAG [Fam3.1 aminoacylation ribozyme variant] | 0.795 | 0.771 | 0.868 | 0.832 | 0.878 | 1.2 |
| AAGUUUGCUAACAGUCGGAAG [Fam3.1 aminoacylation ribozyme variant] | 1.85 | 0.559 | 0.874 | 0.974 | 0.843 | 6.87 |
| AAGUUUGCUAAGAGUCGCGAG [Fam3.1 aminoacylation ribozyme variant] | 1.85 | 1.35 | 1.34 | 1.07 | 1.23 | 0.783 |
| AAGUUUGCUAAUAAUCGCCAG [Fam3.1 aminoacylation ribozyme variant] | 0.769 | 0.642 | 0.798 | 0.804 | 0.734 | 0.708 |
| AAGUUUGCUAAUACUCGCAGG [Fam3.1 aminoacylation ribozyme variant] | 0.766 | 0.977 | 0.709 | 0.748 | 0.655 | 0.89 |
| AAGUUUGCUAAUACUCGCGAG [Fam3.1 aminoacylation ribozyme variant] | 1.52 | 1.35 | 1.19 | 1.02 | 1.09 | 5.73 |
| AAGUUUGCUAAUAGACGCAAA [Fam3.1 aminoacylation ribozyme variant] | 0.532 | 1.03 | 0.892 | 0.973 | 1.14 | 1.11 |
| AAGUUUGCUAAUAGACGCCAG [Fam3.1 aminoacylation ribozyme variant] | 0.72 | 0.453 | 0.448 | 0.568 | 0.494 | 0.535 |
| AAGUUUGCUAAUAGACGGAAG [Fam3.1 aminoacylation ribozyme variant] | 0.764 | 0.406 | 0.584 | 0.637 | 0.544 | 0.91 |
| AAGUUUGCUAAUAGCUGCAAG [Fam3.1 aminoacylation ribozyme variant] | 0.5 | 0.59 | 0.663 | 0.599 | 0.59 | 0.88 |
| AAGUUUGCUAAUAGGCGAAAG [Fam3.1 aminoacylation ribozyme variant] | 0.899 | 0.642 | 0.838 | 0.707 | 0.769 | 1.31 |
| AAGUUUGCUAAUAGGCGCAAG [Fam3.1 aminoacylation ribozyme variant] | 0.641 | 0.558 | 0.634 | 0.608 | 0.59 | 0.866 |
| AAGUUUGCUAAUAGGCGCAUG [Fam3.1 aminoacylation ribozyme variant] | 0.851 | 0.707 | 0.684 | 0.735 | 0.733 | 1.07 |
| AAGUUUGCUAAUAGUAGAAAG [Fam3.1 aminoacylation ribozyme variant] | 1.33 | 1.3 | 1.18 | 1.68 | 1.55 | 1.06 |
| AAGUUUGCUAAUAGUAGCCAG [Fam3.1 aminoacylation ribozyme variant] | 2.24 | 0.78 | 0.769 | 0.868 | 0.77 | 1.04 |
| AAGUUUGCUAAUAGUCACAAU [Fam3.1 aminoacylation ribozyme variant] | 1.11 | 0.82 | 1.19 | 1.18 | 1.18 | 1.14 |
